# Laboratory results: the supplement of paper PMC8728848
# The other results are listed elsewhere or left out.
# B1: FGF1 (Homo sapiens), P05230 (protein)
# chain: MAEGEITTFTALTEKFNLPPGNYKKPKLLYSNGGHFLRILPDGTVDGTRDRSDQHIQLQLSAESVGEVYIKSTETGQYLAMTDGLLYGSQTPNEECLFLERLEENHYNTYISKHAEKNWFVGLKKNGSCKRGPRTHYGQAILFLPLPASSED
# Columns and labels:
# Test in all cases: glycan array binding signal (z-score within array); higher = stronger binding
# Conditions in all cases: glycan notation: IUPAC condensed, linker removed
# [1] = biological target: Gal(b1-3)GlcNAc(b1-2)Man(a1-3)[Gal(b1-3)GlcNAc(b1-2)Man(a1-6)]Man(b1-4)GlcNAc(b1-4)GlcNAc
# Method in brief: (§1)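 Arrays were curated from the Consortium for Functional Glycomics database, 3228 in total, and kept only where the protein sequence was available. Binding is expressed as a within-array Z-score. This score was averaged across arrays of the same protein sequence at different concentrations or buffers and across linkers, and negative values can be read as non-binding.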
# [2] = biological target: Gal(b1-3)GlcNAc(b1-2)Man(a1-3)[Gal(b1-3)GlcNAc(b1-2)Man(a1-6)]Man(b1-4)GlcNAc(b1-4)[Fuc(a1-6)]GlcNAc
# Method in brief: as §1
# [3] = biological target: Gal(b1-3)GlcNAc(b1-2)Man(a1-3)[GlcNAc(b1-4)][Gal(b1-3)GlcNAc(b1-2)Man(a1-6)]Man(b1-4)GlcNAc(b1-4)GlcNAc
# Method in brief: as §1
# [4] = biological target: Gal(b1-3)GlcNAc(b1-2)[Gal(b1-3)GlcNAc(b1-6)]Man(a1-6)[Gal(b1-3)GlcNAc(b1-2)Man(a1-3)]Man(b1-4)GlcNAc(b1-4)GlcNAc
# Method in brief: as §1
# [5] = biological target: Gal(b1-3)GlcNAc(b1-3)Gal(b1-3)GlcNAc
# Method in brief: as §1
# [6] = biological target: Gal(b1-3)GlcNAc(b1-3)Gal(b1-4)Glc
# Method in brief: as §1
# [7] = biological target: Gal(b1-3)GlcNAc(b1-3)Gal(b1-4)GlcNAc
# Method in brief: as §1
# [8] = biological target: Gal(b1-3)GlcNAc(b1-3)Gal(b1-4)GlcNAc(b1-2)Man(a1-3)[Gal(b1-3)GlcNAc(b1-3)Gal(b1-4)GlcNAc(b1-2)Man(a1-6)]Man(b1-4)GlcNAc(b1-4)GlcNAc
# Method in brief: as §1
# [9] = biological target: Gal(b1-3)GlcNAc(b1-3)Gal(b1-4)GlcNAc(b1-2)[Gal(b1-3)GlcNAc(b1-3)Gal(b1-4)GlcNAc(b1-6)]Man(a1-6)[Gal(b1-3)GlcNAc(b1-3)Gal(b1-4)GlcNAc(b1-2)Man(a1-3)]Man(b1-4)GlcNAc(b1-4)[Fuc(a1-6)]GlcNAc
# Method in brief: as §1
# [10] = biological target: Gal(b1-3)GlcNAc(b1-3)Gal(b1-4)GlcNAc(b1-3)Gal(b1-4)GlcNAc(b1-2)[Gal(b1-3)GlcNAc(b1-3)Gal(b1-4)GlcNAc(b1-3)Gal(b1-4)GlcNAc(b1-6)]Man(a1-6)[Gal(b1-3)GlcNAc(b1-3)Gal(b1-4)GlcNAc(b1-3)Gal(b1-4)GlcNAc(b1-2)Man(a1-3)]Man(b1-4)GlcNAc(b1-4)[Fuc(a1-6)]GlcNAc
# Method in brief: as §1
# [11] = biological target: Gal(b1-3)GlcNAc(b1-3)Gal(b1-4)GlcNAc(b1-6)[Gal(b1-3)GlcNAc(b1-3)]Gal(b1-4)Glc
# Method in brief: as §1
# [12] = biological target: Gal(b1-3)GlcNAc(b1-3)Gal(b1-4)[Fuc(a1-3)]GlcNAc
# Method in brief: as §1
# [13] = biological target: Gal(b1-3)GlcNAc(b1-3)Gal(b1-4)[Fuc(a1-3)]GlcNAc(b1-6)[Gal(b1-3)GlcNAc(b1-3)]Gal(b1-4)Glc
# Method in brief: as §1
# [14] = biological target: Gal(b1-3)GlcNAc(b1-3)GalNAc
# Method in brief: as §1
# [15] = biological target: Gal(b1-3)GlcNAc(b1-6)Gal(b1-4)GlcNAc
# Method in brief: as §1
# [16] = biological target: Gal(b1-3)GlcNAc(b1-6)GalNAc
# Method in brief: as §1
# [17] = biological target: Gal(b1-3)GlcNAc(b1-6)[Gal(b1-3)]GalNAc
# Method in brief: as §1
# Gal(b1-3)GlcNAc6S = biological target: Gal(b1-3)GlcNAc6S
# Method in brief: as §1
# [18] = biological target: Gal(b1-3)[Fuc(a1-4)]GlcNAc
# Method in brief: as §1
# [19] = biological target: Gal(b1-3)[Fuc(a1-4)]GlcNAc(b1-2)Man
# Method in brief: as §1
# [20] = biological target: Gal(b1-3)[Fuc(a1-4)]GlcNAc(b1-2)Man(a1-3)[Gal(b1-3)[Fuc(a1-4)]GlcNAc(b1-2)Man(a1-6)]Man(b1-4)GlcNAc(b1-4)[Fuc(a1-6)]GlcNAc
# Method in brief: as §1
# [21] = biological target: Gal(b1-3)[Fuc(a1-4)]GlcNAc(b1-3)Gal(b1-3)[Fuc(a1-4)]GlcNAc
# Method in brief: as §1
# [22] = biological target: Gal(b1-3)[Fuc(a1-4)]GlcNAc(b1-3)Gal(b1-4)[Fuc(a1-3)]GlcNAc
# Method in brief: as §1
# [23] = biological target: Gal(b1-3)[Fuc(a1-4)]GlcNAc(b1-6)GalNAc
# Method in brief: as §1
# [24] = biological target: Gal(b1-3)[GlcNAc(b1-6)]GalNAc
# Method in brief: as §1
# [25] = biological target: Gal(b1-3)[Neu5Ac(a2-6)]GalNAc
# Method in brief: as §1
# [26] = biological target: Gal(b1-3)[Neu5Ac(a2-6)]GlcNAc(b1-4)Gal(b1-4)Glc
# Method in brief: as §1
# [27] = biological target: Gal(b1-3)[Neu5Ac(b2-6)]GalNAc
# Method in brief: as §1
# Gal(b1-4)Gal = biological target: Gal(b1-4)Gal
# Method in brief: as §1
# [28] = biological target: Gal(b1-4)GalNAc(a1-3)[Fuc(a1-2)]Gal(b1-4)GlcNAc
# Method in brief: as §1
# [29] = biological target: Gal(b1-4)GalNAc(b1-3)[Fuc(a1-2)]Gal(b1-4)GlcNAc
# Method in brief: as §1
# Gal(b1-4)Glc = biological target: Gal(b1-4)Glc
# Method in brief: as §1
# Gal(b1-4)Glc6S = biological target: Gal(b1-4)Glc6S
# Method in brief: as §1
# Gal(b1-4)GlcNAc = biological target: Gal(b1-4)GlcNAc
# Method in brief: as §1
# [30] = biological target: Gal(b1-4)GlcNAc(a1-6)Gal(b1-4)GlcNAc
# Method in brief: as §1
# Gal(b1-4)GlcNAc(b1-2)Man = biological target: Gal(b1-4)GlcNAc(b1-2)Man
# Method in brief: as §1
# [31] = biological target: Gal(b1-4)GlcNAc(b1-2)Man(a1-3)Man(b1-4)GlcNAc(b1-4)GlcNAc
# Method in brief: as §1
# [32] = biological target: Gal(b1-4)GlcNAc(b1-2)Man(a1-3)[Gal(b1-4)GlcNAc(b1-2)Man(a1-6)]Man(b1-4)GlcNAc(b1-4)GlcNAc
# Method in brief: as §1
# [33] = biological target: Gal(b1-4)GlcNAc(b1-2)Man(a1-3)[Gal(b1-4)GlcNAc(b1-2)Man(a1-6)]Man(b1-4)GlcNAc(b1-4)[Fuc(a1-6)]GlcNAc
# Method in brief: as §1
# [34] = biological target: Gal(b1-4)GlcNAc(b1-2)Man(a1-3)[Gal(b1-4)GlcNAc(b1-2)Man(a1-6)][Gal(b1-4)GlcNAc(b1-4)]Man(b1-4)GlcNAc(b1-4)[Fuc(a1-6)]GlcNAc
# Method in brief: as §1
# [35] = biological target: Gal(b1-4)GlcNAc(b1-2)Man(a1-3)[Gal(b1-4)GlcNAc(b1-2)Man(a1-6)][GlcNAc(b1-4)]Man(b1-4)GlcNAc(b1-4)[Fuc(a1-6)]GlcNAc
# Method in brief: as §1
# [36] = biological target: Gal(b1-4)GlcNAc(b1-2)Man(a1-3)[GlcNAc(b1-2)Man(a1-6)]Man(b1-4)GlcNAc(b1-4)GlcNAc
# Method in brief: as §1
# [37] = biological target: Gal(b1-4)GlcNAc(b1-2)Man(a1-3)[GlcNAc(b1-4)][Gal(b1-4)GlcNAc(b1-2)Man(a1-6)]Man(b1-4)GlcNAc(b1-4)GlcNAc
# Method in brief: as §1
# [38] = biological target: Gal(b1-4)GlcNAc(b1-2)Man(a1-3)[Man(a1-6)]Man(b1-4)GlcNAc(b1-4)GlcNAc
# Method in brief: as §1
# [39] = biological target: Gal(b1-4)GlcNAc(b1-2)Man(a1-6)Man(b1-4)GlcNAc(b1-4)GlcNAc
# Method in brief: as §1
binder,measurement,setting,value
B1,glycan array binding signal (z-score),[1],0.033
same,glycan array binding signal (z-score),[2],-0.129
same,glycan array binding signal (z-score),[3],1.57
same,glycan array binding signal (z-score),[4],0.108
same,glycan array binding signal (z-score),[5],0.241
same,glycan array binding signal (z-score),[6],0.08
same,glycan array binding signal (z-score),[7],-0.736
same,glycan array binding signal (z-score),[8],-0.788
same,glycan array binding signal (z-score),[9],-0.334
same,glycan array binding signal (z-score),[10],0.206
same,glycan array binding signal (z-score),[11],-0.458
same,glycan array binding signal (z-score),[12],-0.1
same,glycan array binding signal (z-score),[13],-0.789
same,glycan array binding signal (z-score),[14],-0.442
same,glycan array binding signal (z-score),[15],-0.55
same,glycan array binding signal (z-score),[16],-0.308
same,glycan array binding signal (z-score),[17],-0.132
same,glycan array binding signal (z-score),Gal(b1-3)GlcNAc6S,-0.515
same,glycan array binding signal (z-score),[18],-0.355
same,glycan array binding signal (z-score),[19],3.59
same,glycan array binding signal (z-score),[20],3.02
same,glycan array binding signal (z-score),[21],-0.75
same,glycan array binding signal (z-score),[22],-0.833
same,glycan array binding signal (z-score),[23],1.26
same,glycan array binding signal (z-score),[24],-0.688
same,glycan array binding signal (z-score),[25],-0.697
same,glycan array binding signal (z-score),[26],-0.545
same,glycan array binding signal (z-score),[27],-0.615
same,glycan array binding signal (z-score),Gal(b1-4)Gal,-0.605
same,glycan array binding signal (z-score),[28],-0.949
same,glycan array binding signal (z-score),[29],-1.12
same,glycan array binding signal (z-score),Gal(b1-4)Glc,1.07
same,glycan array binding signal (z-score),Gal(b1-4)Glc6S,0.316
same,glycan array binding signal (z-score),Gal(b1-4)GlcNAc,-0.031
same,glycan array binding signal (z-score),[30],-0.827
same,glycan array binding signal (z-score),Gal(b1-4)GlcNAc(b1-2)Man,1.88
same,glycan array binding signal (z-score),[31],-0.453
same,glycan array binding signal (z-score),[32],-0.495
same,glycan array binding signal (z-score),[33],-0.384
same,glycan array binding signal (z-score),[34],-0.861
same,glycan array binding signal (z-score),[35],-0.77
same,glycan array binding signal (z-score),[36],-0.795
same,glycan array binding signal (z-score),[37],-0.739
same,glycan array binding signal (z-score),[38],0.476
same,glycan array binding signal (z-score),[39],-0.615

# Already shown: an excerpt of the list.
binder,measurement,setting,value
B1,glycan array binding signal (z-score),[37],-0.739
same,glycan array binding signal (z-score),[38],0.476
